Laboratory results taken from the supplement of paper PMC8728848.
This is one part of the list.

What was measured:
Test in all cases: glycan array binding signal (z-score within array); higher = stronger binding
Conditions in all cases: glycan notation: IUPAC condensed, linker removed
[1] = biological target: Neu5Ac(a2-3)Gal(b1-4)GlcNAc(b1-2)[Neu5Ac(a2-3)Gal(b1-4)GlcNAc(b1-4)]Man(a1-3)[GlcNAc(b1-4)][Neu5Ac(a2-3)Gal(b1-4)GlcNAc(b1-2)[Neu5Ac(a2-3)Gal(b1-4)GlcNAc(b1-6)]Man(a1-6)]Man(b1-4)GlcNAc(b1-4)GlcNAc
Summary of the method: (§1)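 Glycan array binding is given as a within-array Z-score, which can be read as non-binding when negative. The arrays, 3228 of them, came from the Consortium for Functional Glycomics database and were retained only where the protein sequence was available. Z-scores were averaged across arrays of the same protein sequence at different concentrations or buffers and across linkers.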

[2] = biological target: Neu5Ac(a2-3)Gal(b1-4)GlcNAc(b1-2)[Neu5Ac(a2-3)Gal(b1-4)GlcNAc(b1-4)]Man(a1-3)[GlcNAc(b1-4)][Neu5Ac(a2-3)Gal(b1-4)GlcNAc(b1-4)Man(a1-6)]Man(b1-4)GlcNAc(b1-4)GlcNAc
Summary of the method: as §1

[3] = biological target: Neu5Ac(a2-3)Gal(b1-4)GlcNAc(b1-2)[Neu5Ac(a2-3)Gal(b1-4)GlcNAc(b1-6)]Man(a1-6)[Neu5Ac(a2-3)Gal(b1-4)GlcNAc(b1-2)Man(a1-3)][GlcNAc(b1-4)]Man(b1-4)GlcNAc(b1-4)GlcNAc
Summary of the method: as §1

[4] = biological target: Neu5Ac(a2-3)Gal(b1-4)GlcNAc(b1-3)Gal
Summary of the method: as §1

[5] = biological target: Neu5Ac(a2-3)Gal(b1-4)GlcNAc(b1-3)Gal(b1-3)GlcNAc
Summary of the method: as §1

[6] = biological target: Neu5Ac(a2-3)Gal(b1-4)GlcNAc(b1-3)Gal(b1-4)GlcNAc
Summary of the method: as §1

[7] = biological target: Neu5Ac(a2-3)Gal(b1-4)GlcNAc(b1-3)Gal(b1-4)GlcNAc(b1-2)Man(a1-3)[Neu5Ac(a2-3)Gal(b1-4)GlcNAc(b1-3)Gal(b1-4)GlcNAc(b1-2)Man(a1-6)]Man(b1-4)GlcNAc(b1-4)GlcNAc
Summary of the method: as §1

[8] = biological target: Neu5Ac(a2-3)Gal(b1-4)GlcNAc(b1-3)Gal(b1-4)GlcNAc(b1-3)Gal(b1-4)GlcNAc
Summary of the method: as §1

[9] = biological target: Neu5Ac(a2-3)Gal(b1-4)GlcNAc(b1-3)Gal(b1-4)GlcNAc(b1-3)Gal(b1-4)GlcNAc(b1-2)Man(a1-3)[Neu5Ac(a2-3)Gal(b1-4)GlcNAc(b1-3)Gal(b1-4)GlcNAc(b1-3)Gal(b1-4)GlcNAc(b1-2)Man(a1-6)]GalNAc
Summary of the method: as §1

[10] = biological target: Neu5Ac(a2-3)Gal(b1-4)GlcNAc(b1-3)Gal(b1-4)GlcNAc(b1-3)GalNAc
Summary of the method: as §1

[11] = biological target: Neu5Ac(a2-3)Gal(b1-4)GlcNAc(b1-3)Gal(b1-4)GlcNAc(b1-3)[Neu5Ac(a2-3)Gal(b1-4)GlcNAc(b1-3)Gal(b1-4)GlcNAc(b1-6)]GalNAc
Summary of the method: as §1

[12] = biological target: Neu5Ac(a2-3)Gal(b1-4)GlcNAc(b1-3)Gal(b1-4)GlcNAc(b1-6)[Gal(b1-3)]GalNAc
Summary of the method: as §1

[13] = biological target: Neu5Ac(a2-3)Gal(b1-4)GlcNAc(b1-3)Gal(b1-4)[Fuc(a1-3)]GlcNAc
Summary of the method: as §1

[14] = biological target: Neu5Ac(a2-3)Gal(b1-4)GlcNAc(b1-3)GalNAc
Summary of the method: as §1

[15] = biological target: Neu5Ac(a2-3)Gal(b1-4)GlcNAc(b1-3)[Neu5Ac(a2-3)Gal(b1-4)GlcNAc(b1-6)]GalNAc
Summary of the method: as §1

[16] = biological target: Neu5Ac(a2-3)Gal(b1-4)GlcNAc(b1-6)GalNAc
Summary of the method: as §1

[17] = biological target: Neu5Ac(a2-3)Gal(b1-4)GlcNAc(b1-6)[Gal(b1-3)]GalNAc
Summary of the method: as §1

[18] = biological target: Neu5Ac(a2-3)Gal(b1-4)GlcNAc(b1-6)[Neu5Ac(a2-3)Gal(b1-3)]GalNAc
Summary of the method: as §1

[19] = biological target: Neu5Ac(a2-3)Gal(b1-4)GlcNAc6S
Summary of the method: as §1

[20] = biological target: Neu5Ac(a2-3)Gal(b1-4)[Fuc(a1-3)]GlcNAc
Summary of the method: as §1

[21] = biological target: Neu5Ac(a2-3)Gal(b1-4)[Fuc(a1-3)]GlcNAc(b1-2)Man
Summary of the method: as §1

[22] = biological target: Neu5Ac(a2-3)Gal(b1-4)[Fuc(a1-3)]GlcNAc(b1-3)Gal
Summary of the method: as §1

[23] = biological target: Neu5Ac(a2-3)Gal(b1-4)[Fuc(a1-3)]GlcNAc(b1-3)Gal(b1-4)GlcNAc
Summary of the method: as §1

[24] = biological target: Neu5Ac(a2-3)Gal(b1-4)[Fuc(a1-3)]GlcNAc(b1-3)Gal(b1-4)[Fuc(a1-3)]GlcNAc(b1-3)Gal(b1-4)[Fuc(a1-3)]GlcNAc
Summary of the method: as §1

[25] = biological target: Neu5Ac(a2-3)Gal(b1-4)[Fuc(a1-3)]GlcNAc(b1-3)GalNAc
Summary of the method: as §1

[26] = biological target: Neu5Ac(a2-3)Gal(b1-4)[Fuc(a1-3)]GlcNAc(b1-6)[Gal(b1-3)]GalNAc
Summary of the method: as §1

[27] = biological target: Neu5Ac(a2-3)Gal(b1-4)[Fuc(a1-3)]GlcNAc(b1-6)[Neu5Ac(a2-3)Gal(b1-3)]GalNAc
Summary of the method: as §1

[28] = biological target: Neu5Ac(a2-3)Gal(b1-4)[Fuc(a1-3)]GlcNAc6S
Summary of the method: as §1

[29] = biological target: Neu5Ac(a2-3)Gal6S(b1-4)GlcNAc
Summary of the method: as §1

[30] = biological target: Neu5Ac(a2-3)Gal6S(b1-4)[Fuc(a1-3)]GlcNAc
Summary of the method: as §1

Neu5Ac(a2-3)GalNAc = biological target: Neu5Ac(a2-3)GalNAc
Summary of the method: as §1

[31] = biological target: Neu5Ac(a2-3)GalNAc(b1-4)GlcNAc
Summary of the method: as §1

[32] = biological target: Neu5Ac(a2-3)[GalNAc(b1-4)]Gal(b1-4)Glc
Summary of the method: as §1

[33] = biological target: Neu5Ac(a2-3)[GalNAc(b1-4)]Gal(b1-4)GlcNAc
Summary of the method: as §1

[34] = biological target: Neu5Ac(a2-3)[GalNAc(b1-4)]Gal(b1-4)GlcNAc(b1-3)GalNAc
Summary of the method: as §1

[35] = biological target: Neu5Ac(a2-3)[Neu5Ac(a2-6)]GalNAc
Summary of the method: as §1

Neu5Ac(a2-6)Gal = biological target: Neu5Ac(a2-6)Gal
Summary of the method: as §1

B1: Nc3LysM-2 (protein)
chain: AHVLQARQSVSCDFATAANTGDTCASFAAAWGITEAAFAKLNPGVSCPGNLIAGSEYCVIGTVSTGAPTTTKAATTSTTPPTTTTTTKATTLSTSTTSVSPTGPSPQMPSITSTCNKFYQVQSGDGCWSIEQAQGVSASDFMAWNKAVDAQCDNLWLGYYVCVGVKGGSSPPPTTTTKPASSSAPTPQMPNTVSNCKKFHKVVSGDGCWAIEQAAGISASDFAKWNPYVDAACDNLWLGYYVCIGV
- glycan array binding signal (z-score) [1]: 1.16
- glycan array binding signal (z-score) [2]: -0.254
- glycan array binding signal (z-score) [3]: -0.022
- glycan array binding signal (z-score) [4]: 0.058
- glycan array binding signal (z-score) [5]: 1.52
- glycan array binding signal (z-score) [6]: 0.339
- glycan array binding signal (z-score) [7]: 4.26
- glycan array binding signal (z-score) [8]: 1.13
- glycan array binding signal (z-score) [9]: 0.871
- glycan array binding signal (z-score) [10]: 0.004
- glycan array binding signal (z-score) [11]: -0.674
- glycan array binding signal (z-score) [12]: 0.042
- glycan array binding signal (z-score) [13]: -0.71
- glycan array binding signal (z-score) [14]: -0.611
- glycan array binding signal (z-score) [15]: 0.138
- glycan array binding signal (z-score) [16]: 0.862
- glycan array binding signal (z-score) [17]: 1.15
- glycan array binding signal (z-score) [18]: -1.04
- glycan array binding signal (z-score) [19]: 1
- glycan array binding signal (z-score) [20]: -0.717
- glycan array binding signal (z-score) [21]: -0.075
- glycan array binding signal (z-score) [22]: 0.87
- glycan array binding signal (z-score) [23]: -0.195
- glycan array binding signal (z-score) [24]: 0.917
- glycan array binding signal (z-score) [25]: 1.6
- glycan array binding signal (z-score) [26]: 1.18
- glycan array binding signal (z-score) [27]: 2.08
- glycan array binding signal (z-score) [28]: -0.938
- glycan array binding signal (z-score) [29]: -0.155
- glycan array binding signal (z-score) [30]: -0.852
- glycan array binding signal (z-score) (Neu5Ac(a2-3)GalNAc): -1.24
- glycan array binding signal (z-score) [31]: -0.744
- glycan array binding signal (z-score) [32]: -0.861
- glycan array binding signal (z-score) [33]: -0.72
- glycan array binding signal (z-score) [34]: -1.35
- glycan array binding signal (z-score) [35]: 0.668
- glycan array binding signal (z-score) (Neu5Ac(a2-6)Gal): -0.616
